In publication PMC13647419 one finds binding data, which are given here for one substance.

Protein sequences, listed by entry. Tags and fused reporters are not part of them. Residues count along the entry.
UniProt Q01299, residues 777-1128: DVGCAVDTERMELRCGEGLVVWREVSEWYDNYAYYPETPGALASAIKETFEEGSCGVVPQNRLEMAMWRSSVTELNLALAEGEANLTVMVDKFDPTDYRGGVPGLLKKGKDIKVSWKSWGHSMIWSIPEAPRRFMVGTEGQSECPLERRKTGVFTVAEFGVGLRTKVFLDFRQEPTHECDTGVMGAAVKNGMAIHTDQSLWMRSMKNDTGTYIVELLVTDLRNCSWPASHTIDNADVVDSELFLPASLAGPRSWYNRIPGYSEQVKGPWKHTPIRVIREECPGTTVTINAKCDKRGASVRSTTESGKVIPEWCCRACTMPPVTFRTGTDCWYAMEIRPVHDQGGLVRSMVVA

The target of the test is T1, recombinant human junctional adhesion molecule A (JAM-A) (human) (UniProt Q9Y624).
T1 sequence: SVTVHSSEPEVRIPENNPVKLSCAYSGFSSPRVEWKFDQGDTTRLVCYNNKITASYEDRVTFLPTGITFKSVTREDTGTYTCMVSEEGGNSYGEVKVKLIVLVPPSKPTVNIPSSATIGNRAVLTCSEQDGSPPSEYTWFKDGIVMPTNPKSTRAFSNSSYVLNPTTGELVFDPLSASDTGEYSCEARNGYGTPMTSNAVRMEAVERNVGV
Kind of test: ELISA; both purified.

No constants are given. Whether binding was seen depends on the method and setting. Some entries that bind do so weakly or less than the wild type.

Turning to “TBEV Hypr NS1 produced in mammalian HEK293 cells (Native Antigen) (from UniProt Q01299 777-1128)”, the binding entry is reported as “binds”.
